Experimental data: US20140271682, “HUMAN HOMEOBOX GENE VENTX AND MACROPHAGE TERMINAL DIFFERENTIATION AND ACTIVATION, COMPOSITIONS AND METHODS THEREOF” (published 2014)

Target: T1, VentX (Homo sapiens) (UniProt O95231)
T1 sequence (limits assumed): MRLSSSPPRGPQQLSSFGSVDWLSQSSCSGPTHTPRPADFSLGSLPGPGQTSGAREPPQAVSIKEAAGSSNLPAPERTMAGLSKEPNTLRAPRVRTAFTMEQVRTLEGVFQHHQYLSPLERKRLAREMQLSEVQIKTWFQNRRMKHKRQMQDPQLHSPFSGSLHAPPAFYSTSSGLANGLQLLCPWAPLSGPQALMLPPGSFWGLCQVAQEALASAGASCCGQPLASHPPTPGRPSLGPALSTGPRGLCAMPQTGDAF
Test: EMSA
Conditions: interaction largely abrogated by mutation; protein translated in vitro; protein details: pCS2-VentX, TNT reticulocyte lysate; variant of M-CSFR promoter probe wild type

CTGCGTCTCTAAAATAAGAAGAATAAATTTTTAAAAGATATGC (double strand) [M-CSFR promoter probe mutant]
binding result: binds more weakly

A weaker result is weaker than the reference pair of the same experiment. Tags and fusion partners may be left off the protein sequences shown.
